Source: PubChem BioAssay AID493246 (Drosophila RNAi Screening Center, 2011)
The screen tested about 21,000 reagents; this is an unselected part of those with a known target gene and a result. Of all reagents, 429 (2%) were called active. 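Values are raw and not normalised between plates; calls rest on per-plate z-scores that were not deposited.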 The numbers tell different reagents against one gene apart. Names joined by + are all predicted targets of the reagent. Reagent sequences are not shown. Not given: the amount of reagent, the time to read-out.

Test: 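Genes fly cells need to grow and stay alive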 (primary screen)
System: Drosophila Kc and S2R+ cells
Reagent: long dsRNA against Drosophila genes
Measured: 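Raw, unnormalised count of remaining cells in each well; per-plate z-scores of cell number underlie the calls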
Reading the numbers: Kc cell number and S2R+ cell number: higher = more cells remaining
Active means: 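Active when the per-plate z-score of cell number is 3 or more in the direction of fewer cells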

no.	target gene	reagent	Kc cell number, rep 1	Kc cell number, rep 2	S2R+ cell number, rep 1	S2R+ cell number, rep 2	call
1	CG2694 (GeneID 31260)	1	5.38e5		8.79e5		inactive
2	htt (GeneID 43392)	1	1.46e6	1.48e6	1.01e6	1.10e6	inactive
3	CG31612 (GeneID 35427)	1	1.65e6	1.67e6	1.22e6	2.67e5	inactive
4	CG31612 (GeneID 35427)	2	1.65e6	1.66e6	1.19e6	2.32e5	inactive
5	Hyccin (GeneID 37019)	1	1.37e6	1.44e6	1.18e6	1.21e6	inactive
6	ppk20 (GeneID 43486)	1	1.43e6	1.44e6	1.01e6	1.05e6	inactive
7	Adk1 (GeneID 41476)	1	1.65e6	1.55e6	1.34e6	1.45e6	inactive
8	RpS28b (GeneID 31897)	1	3.59e5		7.22e5		inactive
9	VGAT (GeneID 36574)	1	1.75e6	1.76e6	1.40e6	1.59e6	inactive
10	SmydA-7 (GeneID 36916)	1	1.37e6	1.40e6	1.24e6	1.25e6	inactive
11	CG9389 (GeneID 40347)	1	1.46e6	1.55e6	1.32e6	1.36e6	inactive
12	EndoA (GeneID 42265)	1	1.59e6	1.61e6	1.25e6	1.31e6	inactive
13	CG9547 (GeneID 33911)	1	1.26e6	1.43e6	4.92e5	4.78e5	inactive
14	VhaPPA1-2 (GeneID 41806)	1	1.34e6	1.59e6	1.06e6	1.11e6	inactive
15	CG7099 (GeneID 34753)	1	1.24e6	1.31e6	1.21e6	1.24e6	inactive
16	CG32213 + CG12519 + 825-Oak + 1 more	1	1.41e6	1.39e6	1.05e6	1.11e6	inactive
17	Tbca (GeneID 43737)	1	4.84e5		8.04e5		inactive
18	AstC-R1 (GeneID 40020)	1	1.54e6	1.72e6	1.45e6	1.57e6	inactive
19	CG5793 (GeneID 42505)	1	1.37e6	1.51e6	9.66e5	1.24e6	inactive
20	CG13921 (GeneID 38222)	1	1.46e6	1.40e6	1.15e6	1.16e6	inactive
21	HemK1 (GeneID 33902)	1	1.25e6	1.35e6	6.49e5	7.85e5	inactive
22	Orp8 (GeneID 42412)	1	1.33e6	1.28e6	9.65e5	1.13e6	inactive
23	Orp8 (GeneID 42412)	2	1.55e6	1.66e6	1.16e6	1.22e6	inactive
24	lap (GeneID 40863)	1	1.56e6	1.62e6	1.40e6	1.46e6	inactive
25	CG14015 (GeneID 33780)	1	1.54e6	1.39e6	1.15e6	1.39e6	inactive
26	Kal1 (GeneID 42865)	1	1.42e6	1.47e6	1.08e6	1.09e6	inactive
27	CG32762 (GeneID 318198)	1	1.13e6	1.65e6	1.06e6	1.21e6	inactive
28	PPP1R15 (GeneID 37820)	1	1.20e6	1.32e6	7.43e5	8.09e5	inactive
29	Nin (GeneID 33757)	1	1.22e6	1.40e6	5.91e5	5.31e5	inactive
30	CG17601 (GeneID 33143)	1	1.44e6	1.46e6	1.00e6	1.13e6	inactive
31	smal (GeneID 5740323)	1	1.35e6	1.43e6	1.04e6	1.21e6	inactive
32	smal (GeneID 5740323)	2	1.64e6	1.52e6	1.13e6	1.32e6	inactive
33	smal (GeneID 5740323)	3	1.63e6	1.51e6	1.19e6	1.36e6	inactive
34	smal (GeneID 5740323)	4	1.56e6	1.47e6	1.06e6	1.26e6	inactive
35	DppIII (GeneID 40996)	1	1.68e6	1.82e6	1.42e6	1.62e6	inactive
36	Sytalpha (GeneID 35068)	1	1.66e6	1.68e6	1.34e6	1.53e6	inactive
37	Nmd3 (GeneID 31195)	1	5.84e5		8.53e5		inactive

Reformatted: entries from further up.
target gene,reagent,"Kc cell number, rep 1","Kc cell number, rep 2","S2R+ cell number, rep 1","S2R+ cell number, rep 2",call
EndoA (GeneID 42265),1,1.59e6,1.61e6,1.25e6,1.31e6,inactive
CG9547 (GeneID 33911),1,1.26e6,1.43e6,4.92e5,4.78e5,inactive
VhaPPA1-2 (GeneID 41806),1,1.34e6,1.59e6,1.06e6,1.11e6,inactive

Continued:
no.	target gene	reagent	Kc cell number, rep 1	Kc cell number, rep 2	S2R+ cell number, rep 1	S2R+ cell number, rep 2	call
38	CG10147 (GeneID 38733)	1	1.50e6	1.54e6	1.18e6	1.19e6	inactive
39	CG12239 (GeneID 31509)	1	4.45e5		7.97e5		inactive
40	CG13887 (GeneID 38096)	1	1.25e6	1.28e6	1.06e6	1.15e6	inactive
41	CG34126 (GeneID 318872)	1	1.59e6	1.59e6	1.21e6	1.36e6	inactive
42	CG3407 (GeneID 33606)	1	1.32e6	1.35e6	9.07e5	9.20e5	inactive
43	Plp (GeneID 3772382)	1	1.48e6	1.72e6	1.33e6	1.50e6	inactive
44	Plp (GeneID 3772382)	2	1.30e6	1.50e6	1.36e6	1.41e6	inactive
45	Plp (GeneID 3772382)	3	1.53e6	1.56e6	1.19e6	1.28e6	inactive
46	CG31533 (GeneID 318788)	1	1.41e6	1.68e6	1.08e6	1.28e6	inactive
47	Pepck1 (GeneID 37131)	1	1.71e6	1.73e6	1.19e6	1.34e6	inactive
48	Gp210 (GeneID 35512)	1	1.54e6	1.57e6	1.27e6	1.38e6	inactive
49	Gp210 (GeneID 35512)	2	1.36e6	1.45e6	1.14e6	1.18e6	inactive
50	CG6142 (GeneID 43178)	1	1.54e6	1.75e6	1.03e6	1.11e6	inactive
51	CG9123 (GeneID 32462)	1	1.59e6	1.61e6	1.05e6	1.13e6	inactive
52	nub (GeneID 34669)	1	1.53e6	1.57e6	1.02e6	1.15e6	inactive
53	nub (GeneID 34669)	2	1.47e6	1.49e6	1.13e6	1.33e6	inactive
54	nub (GeneID 34669)	3	1.66e6	1.83e6	1.19e6	1.34e6	inactive
55	nub (GeneID 34669)	4	1.45e6	1.47e6	1.17e6	1.23e6	inactive
56	Bmcp (GeneID 39322)	1	1.37e6	1.42e6	1.25e6	1.21e6	inactive
57	Taf6 (GeneID 40134)	1	1.63e6	1.71e6	1.18e6	1.24e6	inactive
58	Dredd (GeneID 31011)	1	5.36e5		8.54e5		inactive
59	CAP (GeneID 36084)	1	1.53e6	1.48e6	9.56e5	1.16e6	inactive
60	CAP (GeneID 36084)	2	1.59e6	1.63e6	1.26e6	1.30e6	inactive
61	CAP (GeneID 36084)	3	1.63e6	1.62e6	1.29e6	1.34e6	inactive
62	CAP (GeneID 36084)	4	1.74e6	1.71e6	1.42e6	1.56e6	inactive
63	CAP (GeneID 36084)	5	1.88e6	1.90e6	1.54e6	1.64e6	inactive
